Experimental data as given in the supplement of paper PMC10849652.
The other results are listed elsewhere or left out.

Chains of the proteins cited; added tags and fusions are not shown. Lines headed by an entry give the natural chain unless they say otherwise; changes in a name come on top.
UniProt Q86YS7: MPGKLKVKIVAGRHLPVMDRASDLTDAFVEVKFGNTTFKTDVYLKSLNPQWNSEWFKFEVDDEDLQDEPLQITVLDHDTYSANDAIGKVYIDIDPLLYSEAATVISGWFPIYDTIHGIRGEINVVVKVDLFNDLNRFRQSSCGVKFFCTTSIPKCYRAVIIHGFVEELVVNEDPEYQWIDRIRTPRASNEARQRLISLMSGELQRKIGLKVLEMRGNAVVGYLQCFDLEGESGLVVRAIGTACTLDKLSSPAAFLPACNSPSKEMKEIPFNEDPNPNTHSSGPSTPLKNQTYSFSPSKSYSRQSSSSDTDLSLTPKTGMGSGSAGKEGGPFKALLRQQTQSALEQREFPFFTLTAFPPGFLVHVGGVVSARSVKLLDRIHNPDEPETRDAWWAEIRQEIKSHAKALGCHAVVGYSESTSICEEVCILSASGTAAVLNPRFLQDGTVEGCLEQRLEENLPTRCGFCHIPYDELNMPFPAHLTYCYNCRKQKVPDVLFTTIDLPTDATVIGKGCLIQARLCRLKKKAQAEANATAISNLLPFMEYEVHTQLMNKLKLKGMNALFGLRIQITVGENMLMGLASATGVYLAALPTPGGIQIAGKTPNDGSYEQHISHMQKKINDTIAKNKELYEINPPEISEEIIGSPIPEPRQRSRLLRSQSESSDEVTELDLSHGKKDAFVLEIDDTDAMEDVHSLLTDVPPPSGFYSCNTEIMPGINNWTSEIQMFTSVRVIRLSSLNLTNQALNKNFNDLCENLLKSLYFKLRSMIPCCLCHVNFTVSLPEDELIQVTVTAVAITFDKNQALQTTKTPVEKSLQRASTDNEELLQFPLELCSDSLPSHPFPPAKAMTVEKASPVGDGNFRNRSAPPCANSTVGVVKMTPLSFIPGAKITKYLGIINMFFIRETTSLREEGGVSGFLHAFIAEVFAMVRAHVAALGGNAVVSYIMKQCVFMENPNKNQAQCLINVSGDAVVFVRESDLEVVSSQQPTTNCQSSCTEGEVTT
UniProt Q07021: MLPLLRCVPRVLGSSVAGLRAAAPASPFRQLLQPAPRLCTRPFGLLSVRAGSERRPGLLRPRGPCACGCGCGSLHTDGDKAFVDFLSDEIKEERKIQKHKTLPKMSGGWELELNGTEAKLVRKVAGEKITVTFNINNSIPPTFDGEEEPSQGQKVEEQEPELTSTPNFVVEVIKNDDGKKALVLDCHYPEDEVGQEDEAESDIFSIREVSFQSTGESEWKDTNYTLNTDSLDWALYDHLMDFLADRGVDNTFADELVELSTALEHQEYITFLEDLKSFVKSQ
UniProt P47756, whole entry, looked up: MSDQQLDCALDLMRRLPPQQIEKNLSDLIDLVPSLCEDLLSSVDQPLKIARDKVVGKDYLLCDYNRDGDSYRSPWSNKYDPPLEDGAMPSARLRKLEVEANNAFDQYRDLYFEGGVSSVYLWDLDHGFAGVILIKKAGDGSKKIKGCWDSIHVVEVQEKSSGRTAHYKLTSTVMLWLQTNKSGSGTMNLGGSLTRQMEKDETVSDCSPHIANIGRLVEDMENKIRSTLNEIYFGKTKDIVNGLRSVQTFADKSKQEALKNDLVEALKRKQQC
UniProt Q96LT7: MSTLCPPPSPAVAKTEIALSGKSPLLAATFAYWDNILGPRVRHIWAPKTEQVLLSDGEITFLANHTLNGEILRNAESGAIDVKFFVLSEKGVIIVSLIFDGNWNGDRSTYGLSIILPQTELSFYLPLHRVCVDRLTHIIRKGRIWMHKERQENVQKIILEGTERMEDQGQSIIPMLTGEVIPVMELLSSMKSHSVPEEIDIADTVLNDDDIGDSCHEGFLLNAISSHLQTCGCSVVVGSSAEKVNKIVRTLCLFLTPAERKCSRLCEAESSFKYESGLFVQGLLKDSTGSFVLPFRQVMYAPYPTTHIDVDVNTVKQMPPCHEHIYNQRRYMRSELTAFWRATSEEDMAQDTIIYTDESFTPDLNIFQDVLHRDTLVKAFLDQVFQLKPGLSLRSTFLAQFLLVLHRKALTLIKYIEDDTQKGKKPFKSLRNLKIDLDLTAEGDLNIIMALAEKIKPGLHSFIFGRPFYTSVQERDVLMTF
UniProt P27797, whole entry, looked up: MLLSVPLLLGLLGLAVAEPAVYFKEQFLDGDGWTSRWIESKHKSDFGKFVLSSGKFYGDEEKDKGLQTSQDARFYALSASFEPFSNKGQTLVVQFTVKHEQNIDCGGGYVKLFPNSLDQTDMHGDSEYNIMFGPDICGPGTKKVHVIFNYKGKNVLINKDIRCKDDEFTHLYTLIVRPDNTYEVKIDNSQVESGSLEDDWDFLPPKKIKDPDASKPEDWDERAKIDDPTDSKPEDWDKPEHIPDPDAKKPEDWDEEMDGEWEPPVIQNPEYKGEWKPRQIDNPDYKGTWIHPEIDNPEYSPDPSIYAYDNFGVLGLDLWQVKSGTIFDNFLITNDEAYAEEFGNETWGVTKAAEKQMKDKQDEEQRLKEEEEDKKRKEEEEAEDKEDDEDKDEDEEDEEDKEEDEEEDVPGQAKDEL
UniProt Q5BKX5: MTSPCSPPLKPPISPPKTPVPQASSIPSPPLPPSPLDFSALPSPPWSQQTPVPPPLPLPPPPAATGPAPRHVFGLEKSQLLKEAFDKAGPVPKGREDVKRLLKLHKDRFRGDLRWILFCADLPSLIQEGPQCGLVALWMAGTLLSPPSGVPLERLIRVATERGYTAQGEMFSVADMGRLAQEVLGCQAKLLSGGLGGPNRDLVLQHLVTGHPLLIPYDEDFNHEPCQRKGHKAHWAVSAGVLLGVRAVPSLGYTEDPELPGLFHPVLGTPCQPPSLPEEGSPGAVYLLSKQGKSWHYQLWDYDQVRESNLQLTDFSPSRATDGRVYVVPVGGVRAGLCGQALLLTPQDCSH
UniProt Q8WUQ7: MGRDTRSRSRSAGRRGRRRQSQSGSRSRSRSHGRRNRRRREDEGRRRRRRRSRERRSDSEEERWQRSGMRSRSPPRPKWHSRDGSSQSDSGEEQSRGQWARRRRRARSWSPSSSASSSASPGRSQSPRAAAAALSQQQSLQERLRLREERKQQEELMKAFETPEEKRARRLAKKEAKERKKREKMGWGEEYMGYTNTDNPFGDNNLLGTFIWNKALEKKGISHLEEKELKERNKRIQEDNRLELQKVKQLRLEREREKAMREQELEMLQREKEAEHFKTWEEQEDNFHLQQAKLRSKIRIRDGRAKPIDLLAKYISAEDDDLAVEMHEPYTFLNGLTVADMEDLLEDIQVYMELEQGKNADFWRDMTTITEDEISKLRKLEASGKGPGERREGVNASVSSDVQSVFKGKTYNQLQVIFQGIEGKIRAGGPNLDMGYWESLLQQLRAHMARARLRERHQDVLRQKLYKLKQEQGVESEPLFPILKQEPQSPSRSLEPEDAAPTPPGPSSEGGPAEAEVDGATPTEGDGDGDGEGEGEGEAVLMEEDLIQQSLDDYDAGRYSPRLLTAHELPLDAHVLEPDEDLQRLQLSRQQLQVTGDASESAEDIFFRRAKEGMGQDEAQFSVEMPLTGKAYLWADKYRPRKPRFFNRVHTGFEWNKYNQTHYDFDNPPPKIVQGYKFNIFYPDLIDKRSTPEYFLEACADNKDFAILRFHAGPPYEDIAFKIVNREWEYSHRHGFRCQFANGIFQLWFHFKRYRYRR
UniProt Q8N999, whole entry, looked up: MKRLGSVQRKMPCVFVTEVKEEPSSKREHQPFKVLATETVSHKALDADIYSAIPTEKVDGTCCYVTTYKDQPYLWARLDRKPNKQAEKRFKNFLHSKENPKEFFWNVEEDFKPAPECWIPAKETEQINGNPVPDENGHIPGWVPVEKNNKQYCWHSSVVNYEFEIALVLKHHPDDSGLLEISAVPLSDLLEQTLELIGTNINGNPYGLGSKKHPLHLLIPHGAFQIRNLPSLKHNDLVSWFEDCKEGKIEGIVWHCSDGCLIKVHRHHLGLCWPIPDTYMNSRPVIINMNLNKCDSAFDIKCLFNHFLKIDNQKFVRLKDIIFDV
UniProt Q8IXQ3: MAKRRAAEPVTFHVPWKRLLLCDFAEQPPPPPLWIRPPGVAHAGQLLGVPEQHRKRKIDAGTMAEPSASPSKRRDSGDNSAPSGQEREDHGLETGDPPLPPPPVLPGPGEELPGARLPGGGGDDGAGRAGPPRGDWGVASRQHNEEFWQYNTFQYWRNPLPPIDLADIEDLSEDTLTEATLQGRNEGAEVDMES
UniProt Q8N1Q1: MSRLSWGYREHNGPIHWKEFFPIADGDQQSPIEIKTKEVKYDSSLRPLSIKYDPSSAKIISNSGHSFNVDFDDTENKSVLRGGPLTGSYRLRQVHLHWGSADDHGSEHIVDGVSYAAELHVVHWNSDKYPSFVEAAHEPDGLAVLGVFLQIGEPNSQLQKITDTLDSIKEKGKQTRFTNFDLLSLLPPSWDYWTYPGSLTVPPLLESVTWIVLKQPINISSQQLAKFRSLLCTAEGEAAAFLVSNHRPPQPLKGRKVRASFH
UniProt Q9Y376: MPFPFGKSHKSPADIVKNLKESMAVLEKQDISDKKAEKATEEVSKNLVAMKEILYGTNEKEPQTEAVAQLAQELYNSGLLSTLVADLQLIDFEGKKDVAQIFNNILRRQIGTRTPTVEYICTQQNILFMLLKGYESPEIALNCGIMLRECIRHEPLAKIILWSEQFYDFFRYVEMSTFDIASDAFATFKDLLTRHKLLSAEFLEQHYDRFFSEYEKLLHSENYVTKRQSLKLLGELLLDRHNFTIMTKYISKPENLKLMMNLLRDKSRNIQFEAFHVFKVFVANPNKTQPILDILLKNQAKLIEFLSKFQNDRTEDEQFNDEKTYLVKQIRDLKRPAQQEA
UniProt Q14444, whole entry, looked up: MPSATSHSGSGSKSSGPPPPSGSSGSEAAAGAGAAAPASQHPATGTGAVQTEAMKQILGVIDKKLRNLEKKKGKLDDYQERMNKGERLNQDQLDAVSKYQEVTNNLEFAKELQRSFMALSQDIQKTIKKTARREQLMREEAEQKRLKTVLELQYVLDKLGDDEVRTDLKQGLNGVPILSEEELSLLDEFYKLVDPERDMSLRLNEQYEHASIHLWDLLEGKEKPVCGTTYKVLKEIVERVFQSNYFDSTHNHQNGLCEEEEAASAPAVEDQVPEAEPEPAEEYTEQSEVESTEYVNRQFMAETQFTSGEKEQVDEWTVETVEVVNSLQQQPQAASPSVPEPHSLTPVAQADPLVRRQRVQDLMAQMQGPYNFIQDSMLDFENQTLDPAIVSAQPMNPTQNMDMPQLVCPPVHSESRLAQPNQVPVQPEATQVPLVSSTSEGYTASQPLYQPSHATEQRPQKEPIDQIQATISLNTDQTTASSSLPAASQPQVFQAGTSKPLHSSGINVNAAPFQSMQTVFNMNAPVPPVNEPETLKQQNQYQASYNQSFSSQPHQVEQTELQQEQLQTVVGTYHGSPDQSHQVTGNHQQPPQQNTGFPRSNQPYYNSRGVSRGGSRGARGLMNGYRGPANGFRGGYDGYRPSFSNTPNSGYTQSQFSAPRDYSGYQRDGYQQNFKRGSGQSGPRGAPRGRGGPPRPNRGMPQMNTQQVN
UniProt O43852: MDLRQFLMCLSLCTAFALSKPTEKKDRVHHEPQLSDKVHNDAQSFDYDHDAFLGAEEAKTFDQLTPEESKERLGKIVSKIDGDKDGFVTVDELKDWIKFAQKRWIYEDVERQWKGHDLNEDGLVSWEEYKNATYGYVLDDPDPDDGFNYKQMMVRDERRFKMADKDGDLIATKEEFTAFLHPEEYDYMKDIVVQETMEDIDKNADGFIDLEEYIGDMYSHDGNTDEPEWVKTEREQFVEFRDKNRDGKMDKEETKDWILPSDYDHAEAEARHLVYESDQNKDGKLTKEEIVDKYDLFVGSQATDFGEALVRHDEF
UniProt Q9NZ63: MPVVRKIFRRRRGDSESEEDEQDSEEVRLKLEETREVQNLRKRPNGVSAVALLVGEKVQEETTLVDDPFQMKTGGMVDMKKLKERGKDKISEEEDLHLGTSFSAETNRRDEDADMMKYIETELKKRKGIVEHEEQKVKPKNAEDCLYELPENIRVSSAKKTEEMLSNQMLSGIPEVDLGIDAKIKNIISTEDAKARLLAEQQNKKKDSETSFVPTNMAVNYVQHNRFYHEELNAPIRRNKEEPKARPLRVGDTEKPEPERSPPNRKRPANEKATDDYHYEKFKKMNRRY
UniProt Q96EU7: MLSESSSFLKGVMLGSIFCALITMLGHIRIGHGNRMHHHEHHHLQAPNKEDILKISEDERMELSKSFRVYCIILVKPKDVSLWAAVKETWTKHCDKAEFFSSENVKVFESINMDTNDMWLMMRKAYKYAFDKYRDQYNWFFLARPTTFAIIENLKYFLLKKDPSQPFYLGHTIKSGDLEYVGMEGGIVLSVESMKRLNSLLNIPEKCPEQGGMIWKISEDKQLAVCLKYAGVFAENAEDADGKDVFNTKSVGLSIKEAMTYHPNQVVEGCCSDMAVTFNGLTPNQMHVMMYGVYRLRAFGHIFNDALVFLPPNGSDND

Legend:
Assay in all cases: log2 fold change, soluble protein after heating vs DMSO (PISA); higher = thermal stabilisation; K562 lysate, 10 uM; active = over 0.2 and 3.5 SD of the protein, either way, in both replicates (recomputed)
[1] = compound: CS(=O)(=O)CCNCc1ccc(-c2ccc3ncnc(Nc4ccc(OCc5cccc(F)c5)c(Cl)c4)c3c2)o1 [lapatinib]
Outline: (§1)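 Dounce homogenisation of K562 pellets in PBS pH 7.4 with 1 mM MgCl2 produced a crude extract, used at 1 mg/mL protein. Exposure to 10 μM compound lasted 30 min, and aliquots were then heated for 3 min across 48°C-58°C, pooled and brought to 0.5% NP-40 at 4°C. The supernatant after 21,000xg for 90 min was quantified by TMTpro 16plex LC-MS/MS with channel sums equalised. Duplicate values are given as log-two fold change in thermal stability relative to solvent controls.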

[2] = compound: CS(=O)(=O)N1CCN(Cc2cc3nc(-c4cccc5[nH]ncc45)nc(N4CCOCC4)c3s2)CC1 [pictilisib]
Outline: as §1

[3] = compound: C[C@@H](Oc1cc(-c2cnn(C3CCNCC3)c2)cnc1N)c1c(Cl)ccc(F)c1Cl [crizotinib]
Outline: as §1

[4] = compound: C[C@H](C1=CC=C(C=C1)C(=O)NC2=C3C=CNC3=NC=C2)N
Outline: as §1

[5] = compound: C[C@H](Nc1ncnc2nc[nH]c12)c1cc2cccc(Cl)c2c(=O)n1-c1ccccc1 [duvelisib]
Outline: as §1

[6] = compound: Cc1cc(Nc2cc(CN3CCOCC3)c3nc(C)c(Cc4ccc(Cl)cc4F)n3n2)n[nH]1 [gandotinib]
Outline: as §1

[7] = compound: Cc1cc(Nc2cc(N3CCN(C)CC3)nc(Sc3ccc(NC(=O)C4CC4)cc3)n2)n[nH]1 [tozasertib]
Outline: as §1

[8] = compound: Cc1ccc(-n2nc(C(C)(C)C)cc2NC(=O)Nc2ccc(OCCN3CCOCC3)c3ccccc23)cc1 [doramapimod]
Outline: as §1

[9] = compound: Cc1ccc(NC(=O)c2ccc(CN3CC[C@H](N(C)C)C3)c(C(F)(F)F)c2)cc1Nc1nccc(-c2cncnc2)n1 [bafetinib]
Outline: as §1

[10] = compound: Cc1cccc(CC(=O)N2CCc3c2ccc(-c2cn(C)c4ncnc(N)c24)c3F)n1
Outline: as §1

[11] = compound: Cc1cn(-c2cc(NC(=O)c3ccc(C)c(Nc4nccc(-c5cccnc5)n4)c3)cc(C(F)(F)F)c2)cn1 [nilotinib]
Outline: as §1

[12] = compound: Cc1nc(Nc2n[nH]c3c2CN(C(=O)N[C@H](CN(C)C)c2ccccc2)C3(C)C)c2sccc2n1
Outline: as §1

[13] = compound: Cc1nc(Nc2ncc(C(=O)Nc3c(C)cccc3Cl)s2)cc(N2CCN(CCO)CC2)n1 [dasatinib]
Outline: as §1

[14] = compound: Cc1ncc(-c2ccnc(Nc3ccc(S(C)(=O)=O)cc3)n2)n1C(C)C
Outline: as §1

[15] = compound: Cn1cc(-c2ccc3c(c2)CCN3C(=O)Cc2cccc(C(F)(F)F)c2)c2c(N)ncnc21
Outline: as §1

[16] = compound: Cn1cc(CNCC2CCN(c3ncc(C(=O)NO)cn3)CC2)c2ccccc21 [quisinostat]
Outline: as §1

[17] = compound: Cn1cncc1[C@@](N)(c1ccc(Cl)cc1)c1ccc2c(c1)c(-c1cccc(Cl)c1)cc(=O)n2C [tipifarnib]
Outline: as §1

[18] = compound: NC(=O)Nc1cc(-c2cccc(F)c2)sc1C(=O)N[C@H]1CCCNC1
Outline: as §1

[19] = compound: NC(=O)c1cnc(N[C@@H]2CCCC[C@@H]2N)nc1Nc1cccc(-n2nccn2)c1
Outline: as §1

[20] = compound: NC1(c2ccc(-c3nc4ccn5c(=O)[nH]nc5c4cc3-c3ccccc3)cc2)CCC1
Outline: as §1

Target	log2 fold change [1]	log2 fold change [2]	log2 fold change [3]	log2 fold change [4]	log2 fold change [5]	log2 fold change [6]	log2 fold change [7]	log2 fold change [8]	log2 fold change [9]	log2 fold change [10]	log2 fold change [11]	log2 fold change [12]	log2 fold change [13]	log2 fold change [14]	log2 fold change [15]	log2 fold change [16]	log2 fold change [17]	log2 fold change [18]	log2 fold change [19]	log2 fold change [20]
C2CD5 isoform 3 (UniProt Q86YS7)	inactive: -0.031	inactive: -0.029	inactive: -0.028	active: -0.26	inactive: -0.009	inactive: 0.125	inactive: -0.038	inactive: 0.035	inactive: -0.056	active: 0.28	inactive: -0.036	inactive: 0.074	inactive: -0.053	inactive: 0.046	inactive: 0.01	inactive: 0.013	inactive: -0.053	inactive: 0.024	inactive: 0.01	inactive: -0.044
C1QBP (UniProt Q07021)	inactive: 0.019	inactive: 0.047	inactive: 0.019	inactive: 0.024	inactive: 0	inactive: -0.026	inactive: -0.007	inactive: 0.004	inactive: -0.009	inactive: -0.068	inactive: -0.005	inactive: 0.007	inactive: 0.012	inactive: 0.018	inactive: -0.012	inactive: -0.004	inactive: -0.012	inactive: 0.001	inactive: -0.02	inactive: -0.014
CAPZB isoform 2 (UniProt P47756)	inactive: 0.021	inactive: 0.051	inactive: 0.023	inactive: -0.032	inactive: 0.06	inactive: 0.011	inactive: -0.001	inactive: -0.027	inactive: 0.115	inactive: 0.017	inactive: -0.075	inactive: 0.022	inactive: 0.024	inactive: -0.009	inactive: -0.09	inactive: -0.052	inactive: -0.021	inactive: -0.071	inactive: 0.034	inactive: 0.005
C9orf72 (UniProt Q96LT7)	inactive: 0.061	inactive: -0.112	inactive: 0.082	inactive: -0.075	inactive: -0.072	inactive: 0.035	inactive: -0.196	inactive: 0.03	inactive: -0.043	inactive: -0.009	inactive: 0.017	inactive: -0.063	inactive: -0.025	inactive: 0.073	inactive: 0.001	inactive: -0.034	inactive: -0.065	inactive: -0.03	inactive: 0.015	inactive: -0.014
CALR (UniProt P27797)	inactive: -0.004	inactive: 0.032	inactive: 0.035	inactive: 0.102	inactive: -0.005	inactive: -0.038	inactive: -0.014	inactive: -0.05	inactive: 0.047	inactive: -0.029	inactive: 0.009	inactive: -0.009	inactive: 0.012	inactive: -0.01	inactive: 0.018	inactive: 0.051	inactive: 0.005	inactive: -0.01	inactive: 0.007	inactive: 0.005
C19orf54 (UniProt Q5BKX5)	inactive: -0.003	inactive: -0.089	inactive: -0.019	inactive: -0.011	inactive: -0.076	inactive: -0.046	inactive: -0.008	inactive: -0.036	inactive: -0.01	inactive: 0.027	inactive: 0.012	inactive: -0.006	inactive: -0.037	inactive: -0.016	inactive: 0.006	inactive: 0.006	inactive: -0.007	inactive: 0.098	inactive: 0.016	inactive: 0.003
CACTIN isoform 2 (UniProt Q8WUQ7)	inactive: -0.036	inactive: -0.028	inactive: -0.033	inactive: -0.01	inactive: -0.064	inactive: -0.083	inactive: 0.051	inactive: 0.018	inactive: -0.172	inactive: -0.026	inactive: 0	inactive: 0.012	inactive: -0.013	inactive: 0.011	inactive: -0.004	inactive: -0.027	inactive: 0.066	inactive: -0.053	inactive: 0.002	inactive: 0.015
C12orf29 (UniProt Q8N999)	inactive: -0.054	inactive: 0.033	inactive: -0.057	inactive: -0.062	inactive: -0.002	inactive: 0.031	inactive: 0.02	inactive: 0.015	inactive: -0.154	inactive: 0.173	inactive: -0.036	inactive: -0.008	inactive: -0.026	inactive: 0.021	inactive: -0.025	inactive: -0.09	inactive: -0.026	inactive: -0.033	inactive: 0.079	inactive: -0.029
CAPZA1 (UniProt P52907)	inactive: 0.002	inactive: -0.003	inactive: -0.003	inactive: -0.021	inactive: 0.001	inactive: 0.074	inactive: -0.046	inactive: -0.015	inactive: 0.006	inactive: 0.032	inactive: 0.026	inactive: 0.001	inactive: 0.004	inactive: 0.003	inactive: -0.051	inactive: -0.017	inactive: -0.012	inactive: 0.025	inactive: -0.014	inactive: 0.016
C9orf40 (UniProt Q8IXQ3)	inactive: 0.021	inactive: -0.039	inactive: 0.001	inactive: -0.002	inactive: 0.009	inactive: 0.04	inactive: -0.01	inactive: -0.041	inactive: -0.039	inactive: -0.029	inactive: -0.091	inactive: 0.177	inactive: -0.009	inactive: 0.107	inactive: -0.045	inactive: 0.003	inactive: -0.079	inactive: 0.023	inactive: 0.011	inactive: -0.07
CA13 (UniProt Q8N1Q1)	inactive: -0.022	inactive: -0.017	inactive: 0.08	inactive: 0.013	inactive: 0.053	inactive: -0.004	inactive: 0.025	inactive: -0.046	inactive: -0.017	inactive: -0.015	inactive: 0.132	inactive: -0.059	inactive: -0.017	inactive: 0.055	inactive: 0.025	inactive: -0.008	inactive: -0.026	inactive: 0.062	inactive: -0.003	inactive: -0.009
CAB39 (UniProt Q9Y376)	inactive: -0.001	inactive: -0.025	inactive: 0.059	inactive: 0.004	inactive: 0.017	inactive: 0.012	inactive: 0.008	inactive: 0	inactive: 0.009	inactive: -0.019	inactive: 0.009	inactive: -0.017	inactive: 0.008	inactive: -0.005	inactive: 0.042	inactive: 0.039	inactive: 0.007	inactive: -0.015	inactive: 0	inactive: 0.014
CAPRIN1 (UniProt Q14444)	inactive: -0.013	inactive: -0.006	inactive: 0.054	inactive: 0.084	inactive: -0.029	inactive: -0.026	inactive: -0.051	inactive: -0.017	inactive: 0.098	inactive: -0.096	inactive: -0.012	inactive: -0.008	inactive: 0.025	inactive: -0.002	inactive: -0.019	inactive: 0.048	inactive: 0.006	inactive: -0.002	inactive: -0.023	inactive: 0.036
CALU isoform 3 (UniProt O43852)	inactive: 0.014	inactive: 0.024	inactive: 0.017	inactive: -0.02	inactive: 0.003	inactive: 0.026	inactive: -0.044	inactive: -0.03	inactive: -0.011	inactive: 0.014	inactive: -0.012	inactive: -0.004	inactive: 0.029	inactive: 0.007	inactive: -0.028	inactive: 0	inactive: -0.002	inactive: -0.017	inactive: 0	inactive: -0.022
C9orf78 (UniProt Q9NZ63)	inactive: 0.041	inactive: -0.002	inactive: 0.058	inactive: 0.083	inactive: 0.012	inactive: -0.002	inactive: 0.015	inactive: -0.006	inactive: 0.066	inactive: -0.066	inactive: -0.013	inactive: 0.044	inactive: 0.057	inactive: 0.017	inactive: 0.005	inactive: 0.02	inactive: -0.005	inactive: -0.028	inactive: -0.008	inactive: 0.008
C1GALT1C1 (UniProt Q96EU7)	inactive: 0.085	inactive: 0.046	inactive: -0.021	inactive: 0.138	inactive: -0.019	inactive: 0.014	inactive: -0.007	inactive: 0.046	inactive: 0.302	inactive: -0.037	inactive: 0.005	inactive: 0	inactive: -0.038	inactive: 0.048	inactive: 0.042	inactive: -0.028	inactive: 0.033	inactive: 0.05	inactive: -0.026	inactive: -0.001
